# Reference: PubChem BioAssay AID220 (DTP/NCI, 2004)
# The list is a part of this screen's results and no random one: it gathers tests that were run many times, whatever their T/C, doses with no T/C, and many T/C values between a quarter and a half above the control. Other doses and runs of a compound stand elsewhere. T/C: endpoint of the treated group in % of that of the vehicle group. Schedule codes are those of the source, taken here to give the interval after Q, in days (D) or hours (H), and the number of doses after X. Some T/C values carry the count of animals alive at the toxicity check (mostly the fifth day); without a count, all were alive then. Some doses have a count of surviving animals in place of a T/C: the source holds a T/C of zero for them, seemingly a mark for toxic or unscored doses. Survivors were counted at the toxicity check, usually on the fifth day, unless a day is given; later deaths do not show. Some doses were run more than once; their values stand side by side, smallest first.
# Tested on: CD8F1 mice, subcutaneous mammary adenocarcinoma, T/C%
# Assay: NCI In Vivo Anticancer Drug Screen. Data for tumor model Mammary Adenocarcinoma CD8F1 (subcutaneous) in CD8F1
# Conditions: higher T/C = larger tumour
# Summary of the method: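 Mice carrying transplanted tumors received test compound, and survival or tumor size was recorded. Each value is the treated-group measurement divided by the corresponding measurement in vehicle-dosed controls.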
# [1] = T/C endpoint: median tumor weight change, dose: 2000.0 mg/kg/injection, schedule: Q01DX001 (ip), vehicle: saline with Tween-80
# [2] = T/C endpoint: median tumor weight change, dose: 250.0 mg/kg/injection, schedule: Q01DX001 (ip), vehicle: saline with Tween-80
# [3] = T/C endpoint: median tumor weight change, dose: 500.0 mg/kg/injection, schedule: Q01DX001 (ip), vehicle: saline with Tween-80
# [4] = T/C endpoint: median tumor weight change, dose: 1000.0 mg/kg/injection, schedule: Q01DX001 (ip), vehicle: saline with Tween-80
# [5] = T/C endpoint: median tumor weight change, dose: 500.0 mg/kg/injection, schedule: Q01DX001 (ip), vehicle: saline
# [6] = T/C endpoint: median tumor weight change, dose: 500.0 mg/kg/injection, schedule: Q01DX001 (ip), vehicle: suspension in saline
# [7] = T/C endpoint: median tumor weight change, dose: 1000.0 mg/kg/injection, schedule: Q01DX001 (ip), vehicle: saline
# [8] = T/C endpoint: median tumor weight change, dose: 1000.0 mg/kg/injection, schedule: Q01DX001 (ip), vehicle: suspension in saline
# [9] = T/C endpoint: median tumor weight change, dose: 250.0 mg/kg/injection, schedule: Q01DX001 (ip), vehicle: water
# [10] = T/C endpoint: median tumor weight change, dose: 500.0 mg/kg/injection, schedule: Q01DX001 (ip), vehicle: water
# [11] = T/C endpoint: median tumor weight change, dose: 25.0 mg/kg/injection, schedule: Q01DX001 (ip), vehicle: suspension in saline
# [12] = T/C endpoint: median tumor weight change, dose: 50.0 mg/kg/injection, schedule: Q01DX001 (ip), vehicle: suspension in saline
# [13] = T/C endpoint: median tumor weight change, dose: 100.0 mg/kg/injection, schedule: Q01DX001 (ip), vehicle: suspension in saline
compound,measurement,setting,value
CCCCCCOC(CN(C)C)C(Cl)(Cl)Cl (stereo not drawn),survivor count,"T/C endpoint: median tumor weight change, dose: 800.0 mg/kg/injection, schedule: Q01DX001 (ip), vehicle: saline with Tween-80",4 of 8 on day 29
same,survivor count,"T/C endpoint: median tumor weight change, dose: 1600.0 mg/kg/injection, schedule: Q01DX001 (ip), vehicle: saline with Tween-80",5 of 8 on day 29
same,survivor count,[1],0 of 10 on day 29
same,survivor count,"T/C endpoint: median tumor weight change, dose: 4000.0 mg/kg/injection, schedule: Q01DX001 (ip), vehicle: saline with Tween-80",0 of 10 on day 29
CCc1ccc(C2=C(O)C(=O)C(c3ccc(CC)cc3)=C(O)C2=O)cc1,survivor count,[2],2 of 10 on day 24
same,survivor count,[3],1 of 10 on day 24
CN(C)C(=O)c1cccc(COc2ccc(N3C(N)=NC(N)=NC3(C)C)cc2Cl)c1,survivor count,"T/C endpoint: median tumor weight (est.), dose: 64.0 mg/kg/injection, schedule: Q07DX005 (ip), vehicle: suspension in saline",2 of 10
C[CH2][Sn]([CH2]C)([CH2]C(=O)OC)[CH2]C(=O)OC,T/C,"T/C endpoint: median tumor weight change, dose: 4.0 mg/kg/injection, schedule: Q01DX001 (ip), vehicle: saline with Tween-80, evaluated on day 31",142 % of control [8 of 10 alive on day 31]
same,T/C,"T/C endpoint: median tumor weight change, dose: 8.0 mg/kg/injection, schedule: Q01DX001 (ip), vehicle: saline with Tween-80, evaluated on day 31",141 % of control
same,survivor count,"T/C endpoint: median tumor weight change, dose: 32.0 mg/kg/injection, schedule: Q01DX001 (ip), vehicle: saline with Tween-80",0 of 10 on day 31
same,survivor count,"T/C endpoint: median tumor weight change, dose: 62.5 mg/kg/injection, schedule: Q01DX001 (ip), vehicle: saline with Tween-80",0 of 10 on day 29
same,survivor count,"T/C endpoint: median tumor weight change, dose: 64.0 mg/kg/injection, schedule: Q01DX001 (ip), vehicle: saline with Tween-80",0 of 10 on day 31
same,survivor count,"T/C endpoint: median tumor weight change, dose: 125.0 mg/kg/injection, schedule: Q01DX001 (ip), vehicle: saline with Tween-80",0 of 10 on day 29
same,survivor count,[2],0 of 10 on day 29
same,survivor count,[3],0 of 10 on day 29
same,survivor count,[4],0 of 10 on day 29
c1ccc2c(NCCCCCCNc3c4ccccc4nc4ccccc34)c3ccccc3nc2c1,T/C,"T/C endpoint: median tumor weight (est.), dose: 10.0 mg/kg/injection, schedule: Q07DX005 (ip), vehicle: Klucel (hydroxypropylcellulose) (HPC), evaluated on day 30",145 % of control
C=CC(=O)NCNC(=O)C=C,survivor count,[5],0 of 10 on day 31
same,survivor count,[6],0 of 9 on day 29
same,survivor count,"T/C endpoint: median tumor weight change, dose: 574.0 mg/kg/injection, schedule: Q01DX001 (ip), vehicle: saline",0 of 10 on day 33
same,survivor count,[7],0 of 10 on day 31
same,survivor count,[8],0 of 9 on day 29
same,survivor count,"T/C endpoint: median tumor weight change, dose: 2000.0 mg/kg/injection, schedule: Q01DX001 (ip), vehicle: suspension in saline",0 of 9 on day 29
COC1=C2C[C@@H](C)C[C@@H](OC)[C@@H](O)[C@H](C)/C=C(\C)[C@@H](OC(N)=O)[C@H](OC)/C=C\C=C(/C)C(=O)NC(=CC1=O)C2=O,T/C,"T/C endpoint: median tumor weight change, dose: 5.0 mg/kg/injection, schedule: Q01DX001 (ip), vehicle: saline with Tween-80, evaluated on day 29",130 % of control
same,survivor count,"T/C endpoint: median tumor weight change, dose: 20.0 mg/kg/injection, schedule: Q01DX001 (ip), vehicle: saline with Tween-80",1 of 10 on day 29 and 2 of 10 on day 25
CC(=O)OC1(C)CC(C)C(=O)C(C(O)CC2CC(=O)NC(=O)C2)C1 (stereo not drawn),T/C,"T/C endpoint: median tumor weight (est.), dose: 47.0 micrograms/kg/injection, schedule: Q07DX005 (ip), vehicle: saline, evaluated on day 30",149 % of control [9 of 10 alive on day 30]
Cc1ccccc1-[n+]1noc(N)n1,survivor count,[9],0 of 10 on day 29
same,survivor count,[10],0 of 10 on day 29
c1ccc([Te][Te]c2ccccc2)cc1,survivor count,"T/C endpoint: median tumor weight change, dose: 600.0 mg/kg/injection, schedule: Q01DX001 (ip), vehicle: Klucel (hydroxypropylcellulose) (HPC)",2 of 10 on day 32
Cc1cccc(-[n+]2noc(N)n2)c1,survivor count,[9],0 of 10 on day 30
same,survivor count,[10],0 of 10 on day 30
same,survivor count,"T/C endpoint: median tumor weight change, dose: 1000.0 mg/kg/injection, schedule: Q01DX001 (ip), vehicle: water",0 of 10 on day 30
[Cl][Pt+2][Cl].[NH-]C1CCC1.[NH2-],survivor count,[11],6 of 10 on day 31
same,survivor count,[12],3 of 10 on day 31
same,survivor count,[13],0 of 10 on day 31
[Cl][Pt+2][Cl].[NH-]CC1(C[NH-])CCC1,survivor count,[11],4 of 10 on day 38
same,survivor count,[12],0 of 10 on day 38
same,survivor count,[13],0 of 10 on day 38
same,survivor count,"T/C endpoint: median tumor weight change, dose: 200.0 mg/kg/injection, schedule: Q01DX001 (ip), vehicle: suspension in saline",0 of 10 on day 38
C[n+]1c(-c2cccc(OCCOCCOc3cccc(-c4c5cc(N)ccc5c5ccc(N)cc5[n+]4C)c3)c2)c2cc(N)ccc2c2ccc(N)cc21,T/C,"T/C endpoint: median tumor weight change, dose: 20.0 mg/kg/injection, schedule: Q01DX001 (ip), vehicle: water, evaluated on day 41",139 % of control
same,survivor count,"T/C endpoint: median tumor weight change, dose: 80.0 mg/kg/injection, schedule: Q01DX001 (ip), vehicle: water",6 of 10 on day 41
O=C(O)C(CSC(c1ccccc1)(c1ccccc1)c1ccccc1)N=Cc1cccs1 (stereo not drawn),survivor count,[5],5 of 10 on day 31
same,survivor count,[6],1 of 10 on day 35
same,survivor count,[7],0 of 10 on day 31
same,survivor count,[8],0 of 10 on day 35
same,survivor count,"T/C endpoint: median tumor weight change, dose: 2000.0 mg/kg/injection, schedule: Q01DX001 (ip), vehicle: saline",0 of 10 on day 31
N#CCCSC(=S)C1CCCC1=N (stereo not drawn),T/C,"T/C endpoint: median tumor weight change, dose: 62.5 mg/kg/injection, schedule: Q01DX001 (ip), vehicle: saline with Tween-80, evaluated on day 26",148 % of control
same,T/C,"T/C endpoint: median tumor weight change, dose: 125.0 mg/kg/injection, schedule: Q01DX001 (ip), vehicle: saline with Tween-80, evaluated on day 26",143 % of control
same,T/C,"T/C endpoint: median tumor weight change, dose: 250.0 mg/kg/injection, schedule: Q01DX001 (ip), vehicle: saline with Tween-80, evaluated on day 35",135 % of control
same,survivor count,[4],0 of 10 on day 35 and 6 of 10 on day 26
same,survivor count,[1],0 of 10 on day 35 and 2 of 10 on day 26
CCN1C=C/C(=C\C=C/c2cc[n+](CC)c3ccccc23)c2ccccc21,T/C,"T/C endpoint: median tumor weight (est.), dose: 0.5 mg/kg/injection, schedule: Q07DX005 (ip), vehicle: suspension in saline, evaluated on day 32",133 % of control [9 of 10 alive]
[Cl][Hg][Cl],survivor count,"T/C endpoint: median tumor weight change, dose: 6.25 mg/kg/injection, schedule: Q01DX001 (ip), vehicle: saline",6 of 10 on day 25
same,survivor count,"T/C endpoint: median tumor weight change, dose: 12.5 mg/kg/injection, schedule: Q01DX001 (ip), vehicle: saline",0 of 10 on day 25
same,survivor count,"T/C endpoint: median tumor weight change, dose: 25.0 mg/kg/injection, schedule: Q01DX001 (ip), vehicle: saline",0 of 10 on day 25
ClCCCCCCCCCCc1ccccc1,T/C,"T/C endpoint: median tumor weight (est.), dose: 50.0 mg/kg/injection, schedule: Q07DX005 (ip), vehicle: Klucel (hydroxypropylcellulose) (HPC), evaluated on day 30",133 % of control [9 of 10 alive]
COC1=C(C)C(=O)C2=C(C1=O)C1C3CC4=C(C(=O)C(OC)=C(C)C4=O)C(CNC(=O)C(C)=O)N3C(C#N)C(C2)N1C (stereo not drawn),T/C,"T/C endpoint: median tumor weight change, dose: 0.31 mg/kg/injection, schedule: Q01DX001 (ip), vehicle: Klucel (hydroxypropylcellulose) (HPC), evaluated on day 36",128 % of control
same,T/C,"T/C endpoint: median tumor weight change, dose: 5.0 mg/kg/injection, schedule: Q01DX001 (ip), vehicle: Klucel (hydroxypropylcellulose) (HPC), evaluated on day 36",147 % of control [8 of 10 alive on day 36]
same,survivor count,"T/C endpoint: median tumor weight change, dose: 5.0 mg/kg/injection, schedule: Q01DX001 (ip), vehicle: Klucel (hydroxypropylcellulose) (HPC)",0 of 10 on day 29
Cc1cn(C2CC3[O][Sn]([c]4ccccc4)([c]4ccccc4)[O]CC3O2)c(=O)[nH]c1=O (stereo not drawn),T/C,"T/C endpoint: median tumor weight (est.), dose: 6.25 mg/kg/injection, schedule: Q07DX005 (ip), vehicle: saline, evaluated on day 30",138 % of control
O=C(NO)c1cc(O)c(O)c(O)c1,survivor count,"T/C endpoint: median tumor weight change, dose: 1200.0 mg/kg/injection, schedule: Q01DX001 (ip), vehicle: water",3 of 10 on day 34
same,survivor count,"T/C endpoint: median tumor weight change, dose: 2400.0 mg/kg/injection, schedule: Q01DX001 (ip), vehicle: water",0 of 10 on day 34
Nc1ccc2ccc(NS(=O)(=O)N3CCCCC3)cc2c1,survivor count,[1],1 of 10 on day 27
